Results taken from patent publication CN103342750A.
No constants are given. Whether binding was seen depends on the method and setting. Some binding calls cover weakened binding; strength is not graded here.

Amino acid sequences for entries named in this document (tags omitted). Residues count along the entry.
UniProt P04114, residues 28-4563: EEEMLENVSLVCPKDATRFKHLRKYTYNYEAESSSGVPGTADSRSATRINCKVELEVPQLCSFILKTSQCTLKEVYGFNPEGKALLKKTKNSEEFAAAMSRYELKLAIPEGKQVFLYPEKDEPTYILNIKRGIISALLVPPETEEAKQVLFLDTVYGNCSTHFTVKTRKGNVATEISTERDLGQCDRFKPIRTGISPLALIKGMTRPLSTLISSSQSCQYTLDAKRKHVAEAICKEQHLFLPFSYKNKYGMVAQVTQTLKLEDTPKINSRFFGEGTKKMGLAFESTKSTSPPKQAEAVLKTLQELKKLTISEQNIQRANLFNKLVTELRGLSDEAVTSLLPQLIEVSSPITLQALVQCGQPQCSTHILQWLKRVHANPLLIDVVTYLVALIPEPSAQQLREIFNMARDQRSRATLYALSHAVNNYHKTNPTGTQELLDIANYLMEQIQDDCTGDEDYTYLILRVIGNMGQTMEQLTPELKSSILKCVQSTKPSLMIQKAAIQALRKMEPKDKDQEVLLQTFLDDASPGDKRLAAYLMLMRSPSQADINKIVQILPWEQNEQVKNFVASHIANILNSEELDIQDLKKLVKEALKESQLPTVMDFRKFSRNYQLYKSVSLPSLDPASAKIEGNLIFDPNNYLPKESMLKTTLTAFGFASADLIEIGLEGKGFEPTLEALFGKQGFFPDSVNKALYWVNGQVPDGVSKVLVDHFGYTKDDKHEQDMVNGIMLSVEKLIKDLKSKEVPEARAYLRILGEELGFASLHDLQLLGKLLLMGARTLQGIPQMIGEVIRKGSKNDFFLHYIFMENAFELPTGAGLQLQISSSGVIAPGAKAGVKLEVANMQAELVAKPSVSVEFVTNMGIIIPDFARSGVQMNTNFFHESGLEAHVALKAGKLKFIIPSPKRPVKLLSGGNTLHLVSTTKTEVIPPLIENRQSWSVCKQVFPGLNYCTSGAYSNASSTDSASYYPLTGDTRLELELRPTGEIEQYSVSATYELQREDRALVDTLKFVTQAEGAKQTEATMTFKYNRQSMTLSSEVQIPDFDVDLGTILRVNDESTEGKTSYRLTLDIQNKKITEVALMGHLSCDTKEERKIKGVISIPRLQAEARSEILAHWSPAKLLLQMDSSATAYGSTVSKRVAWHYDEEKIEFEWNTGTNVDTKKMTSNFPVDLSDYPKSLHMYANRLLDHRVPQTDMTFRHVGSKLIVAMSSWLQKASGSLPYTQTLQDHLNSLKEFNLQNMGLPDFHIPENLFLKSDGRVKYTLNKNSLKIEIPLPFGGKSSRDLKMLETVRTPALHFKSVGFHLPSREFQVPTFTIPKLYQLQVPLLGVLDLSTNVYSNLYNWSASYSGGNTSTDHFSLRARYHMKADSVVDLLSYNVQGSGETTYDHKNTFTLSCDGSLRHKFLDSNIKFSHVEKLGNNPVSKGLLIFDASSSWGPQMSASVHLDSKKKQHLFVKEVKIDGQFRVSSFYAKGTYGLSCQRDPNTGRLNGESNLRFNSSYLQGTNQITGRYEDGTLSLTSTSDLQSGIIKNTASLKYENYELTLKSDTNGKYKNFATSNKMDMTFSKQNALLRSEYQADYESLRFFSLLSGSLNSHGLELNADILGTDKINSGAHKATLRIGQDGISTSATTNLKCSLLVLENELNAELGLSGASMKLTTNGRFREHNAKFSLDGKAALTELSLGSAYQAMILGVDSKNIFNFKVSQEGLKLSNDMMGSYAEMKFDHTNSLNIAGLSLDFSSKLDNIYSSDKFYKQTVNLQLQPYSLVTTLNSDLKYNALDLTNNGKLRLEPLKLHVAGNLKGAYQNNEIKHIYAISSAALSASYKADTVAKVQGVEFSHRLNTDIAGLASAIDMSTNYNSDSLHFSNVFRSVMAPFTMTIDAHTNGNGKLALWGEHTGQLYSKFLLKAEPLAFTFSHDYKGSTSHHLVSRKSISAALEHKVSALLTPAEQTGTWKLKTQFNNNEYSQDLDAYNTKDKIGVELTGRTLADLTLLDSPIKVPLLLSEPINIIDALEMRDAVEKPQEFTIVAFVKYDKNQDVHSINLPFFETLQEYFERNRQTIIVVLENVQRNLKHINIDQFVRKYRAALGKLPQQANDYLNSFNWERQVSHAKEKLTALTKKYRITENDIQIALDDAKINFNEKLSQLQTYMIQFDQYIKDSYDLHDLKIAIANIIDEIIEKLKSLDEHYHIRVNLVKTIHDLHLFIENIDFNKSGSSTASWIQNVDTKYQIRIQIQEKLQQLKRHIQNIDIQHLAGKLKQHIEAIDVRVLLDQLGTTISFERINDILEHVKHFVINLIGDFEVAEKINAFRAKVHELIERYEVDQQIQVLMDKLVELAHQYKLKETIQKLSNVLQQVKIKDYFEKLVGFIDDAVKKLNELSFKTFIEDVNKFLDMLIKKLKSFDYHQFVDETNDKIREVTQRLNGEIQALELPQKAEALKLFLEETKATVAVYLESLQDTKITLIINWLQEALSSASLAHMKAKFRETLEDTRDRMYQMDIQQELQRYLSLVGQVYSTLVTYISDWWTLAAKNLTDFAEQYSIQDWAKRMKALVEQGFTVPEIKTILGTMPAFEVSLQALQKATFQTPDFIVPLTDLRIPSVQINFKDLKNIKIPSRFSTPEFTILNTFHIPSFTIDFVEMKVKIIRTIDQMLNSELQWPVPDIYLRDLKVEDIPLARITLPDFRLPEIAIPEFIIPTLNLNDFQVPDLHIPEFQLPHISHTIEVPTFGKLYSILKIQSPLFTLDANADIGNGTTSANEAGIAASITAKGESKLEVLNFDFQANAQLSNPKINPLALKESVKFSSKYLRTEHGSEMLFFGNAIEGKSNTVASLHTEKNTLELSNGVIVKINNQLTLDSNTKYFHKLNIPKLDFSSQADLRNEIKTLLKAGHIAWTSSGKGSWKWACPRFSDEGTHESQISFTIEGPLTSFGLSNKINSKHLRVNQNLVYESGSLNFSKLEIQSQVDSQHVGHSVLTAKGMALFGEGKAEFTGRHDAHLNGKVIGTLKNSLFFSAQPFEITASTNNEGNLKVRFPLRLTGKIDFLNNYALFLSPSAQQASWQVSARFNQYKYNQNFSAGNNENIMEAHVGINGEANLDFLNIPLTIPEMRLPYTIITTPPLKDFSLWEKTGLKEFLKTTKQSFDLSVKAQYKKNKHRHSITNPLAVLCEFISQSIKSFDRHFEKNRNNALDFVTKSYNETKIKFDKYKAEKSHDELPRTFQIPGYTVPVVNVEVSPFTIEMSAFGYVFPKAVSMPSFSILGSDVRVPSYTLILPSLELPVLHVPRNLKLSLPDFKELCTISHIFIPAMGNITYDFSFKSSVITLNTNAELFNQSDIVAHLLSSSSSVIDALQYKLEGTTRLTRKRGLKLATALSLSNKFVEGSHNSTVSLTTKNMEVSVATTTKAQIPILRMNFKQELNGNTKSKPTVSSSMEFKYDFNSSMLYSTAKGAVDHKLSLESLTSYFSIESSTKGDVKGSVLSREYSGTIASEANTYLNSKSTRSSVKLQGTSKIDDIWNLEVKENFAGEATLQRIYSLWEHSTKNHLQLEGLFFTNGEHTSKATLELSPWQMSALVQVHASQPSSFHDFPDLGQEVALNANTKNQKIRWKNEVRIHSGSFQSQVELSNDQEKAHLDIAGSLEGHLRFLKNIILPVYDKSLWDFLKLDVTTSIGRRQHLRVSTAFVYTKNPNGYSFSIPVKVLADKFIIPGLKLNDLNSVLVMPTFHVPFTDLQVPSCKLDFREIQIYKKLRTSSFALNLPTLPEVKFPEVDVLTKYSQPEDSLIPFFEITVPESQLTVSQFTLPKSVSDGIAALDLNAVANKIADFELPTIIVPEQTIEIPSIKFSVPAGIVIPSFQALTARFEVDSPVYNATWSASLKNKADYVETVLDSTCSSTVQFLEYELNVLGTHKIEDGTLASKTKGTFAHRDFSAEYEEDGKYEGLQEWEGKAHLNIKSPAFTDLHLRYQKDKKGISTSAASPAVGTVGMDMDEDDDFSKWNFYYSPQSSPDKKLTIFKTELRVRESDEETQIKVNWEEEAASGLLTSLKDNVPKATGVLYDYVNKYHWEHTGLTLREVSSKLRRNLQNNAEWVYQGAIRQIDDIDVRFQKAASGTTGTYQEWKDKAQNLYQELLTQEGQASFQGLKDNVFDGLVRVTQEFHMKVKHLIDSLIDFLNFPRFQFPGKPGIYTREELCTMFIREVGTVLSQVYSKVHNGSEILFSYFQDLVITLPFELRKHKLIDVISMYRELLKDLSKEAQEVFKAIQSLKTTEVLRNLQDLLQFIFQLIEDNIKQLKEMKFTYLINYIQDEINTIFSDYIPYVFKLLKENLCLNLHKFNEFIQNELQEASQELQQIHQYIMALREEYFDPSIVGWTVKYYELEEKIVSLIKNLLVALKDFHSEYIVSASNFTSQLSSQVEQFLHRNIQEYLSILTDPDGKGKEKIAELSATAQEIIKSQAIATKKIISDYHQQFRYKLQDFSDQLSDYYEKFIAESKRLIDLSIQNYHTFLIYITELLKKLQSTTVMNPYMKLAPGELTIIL

Columns and labels:
[1] = substrate: 由人血液中提取的载脂蛋白B (human) (UniProt P04114); assay: ELISA of periplasmic extracts on plate-coated apoB, anti-HA detection; clones sequenced from positive wells (sample OD more than 3 times control OD)
[2] = substrate: 由人血液中提取的载脂蛋白B (human) (UniProt P04114); assay: specificity ELISA on plate-coated apoB, with prealbumin and blank wells as controls, anti-HA detection, OD405

B1: 载脂蛋白B纳米抗体 (VHH链 SEQ ID NO:15) (VHH)
VHH: QVQLQESGGGSVQAGGSLRLSCVASGYSDRAVNMGWFRQAPGKDRDWVAAISRGGCLTYYADSVKGRFTISQDKAKNTVYLQMDSLKPEDTAIYYCGPGSSQVQITLSQNLVWGQGTQVTVSS
- binding [1]: binds
- binding [2]: binds
